# Measured values reported in US20250019648A1, “A SPERM EXTENDER MEDIUM” (MEAT & LIVESTOCK AUSTRALIA LIMITED, priority 2021, published 2025).
# At least one compound was matched to its structure with a doubt left.
# System: bovine spermatozoa
# Assay: Effects of medium components on bovine sperm motility after 24 hours at RT (Experiment 2)
# Assay type: cell-based
# Details: field conditions; rosiglitazone 0-100 μM; sugar source; coenzyme Q10
# Source text: Institutional and New South Wales State Government ethical approval was secured for the use of animal material in this study. This research was based on ejaculates from 17 normozoospermic Angus bulls (between 3 and 7 years of age) of proven fertility, held on institutionally-approved premises at Charles Sturt University ([…], Australia). Semen was collected via electro-ejaculation, and the ejaculate was either left undiluted (Experiment 1) or was immediately diluted (2:1; extender:semen) with INRA96 (Experiments 2 and 3-Sections 2 and 3). […] Equipment and extender medium were maintained at temperatures between 30° C. and 37° C. for the duration of semen collection and dilution. […] Sperm motility was objectively determined with computer assisted sperm analysis (CASA; IVOS, Hamilton Thorne, Danvers, MA) using the following settings; negative phase-contrast optics, recording rate of 60 frames/s, minimum contrast of 70, minimum cell size of 4 pixels, low size gate of 0.17, high size gate of 2.9, low intensity gate of 0.6, high intensity gate of 1.74, non-motile head size of 10 pixels, non-motile head intensity of 135, progressive VAP threshold of 50 μm/s, slow (static) cells VAP threshold of 20 μm/s, slow (static) cells VSL threshold of 0 μm/s and threshold STR of 75%. […]
smiles,measurement,value
"CN(CCOc1ccc(CC2SC(=O)NC2=O)cc1)c1ccccn1 (stereo not shown) [rosiglitazone, reference compound]",effect on sperm motility at the 24 h mark as determined by CASA,No significant effects
